# Reference: PMC4266902, “Néstor-Guillermo Progeria Syndrome: a biochemical insight into Barrier-to-Autointegration Factor 1, alanine 12 threonine mutation” (BMC Molecular Biology, 2014)
# Chains of the proteins cited; added tags and fusions are not shown. Lines headed by an entry give the natural chain unless they say otherwise; changes in a name come on top.
# UniProt O75531: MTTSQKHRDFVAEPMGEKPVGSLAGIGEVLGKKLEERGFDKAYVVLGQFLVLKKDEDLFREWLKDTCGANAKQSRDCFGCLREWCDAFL
# Construct, isoform or probe ends are uncertain for at least one entry. A weaker result is weaker than the reference pair of the same experiment. Where a protein sequence is shown, tags need not be part of it.
# Target: T1, BANF1 A12T (UniProt O75531)
# T1 sequence (looked up, limits assumed): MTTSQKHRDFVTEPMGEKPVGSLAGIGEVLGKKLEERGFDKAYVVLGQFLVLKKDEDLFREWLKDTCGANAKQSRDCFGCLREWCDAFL
# Test: EMSA
# Conditions: 0-1 uM protein, 10 nM DNA, 30 min 4 C, marked defect vs WT; 10 mM Tris-HCl pH 7.0, 20 mM NaCl, 100 ng/mL BSA, 5 mM DTT, 30 min at 4 C; 7% PAGE 0.5x TBE at 4 C (short DNA) or 0.6% agarose 1x TBE (plasmid); recombinant protein; protein details: N-terminal His6; label: 5'-FAM on strand 1
sequence,measurement,value
CTCTCCCTTCGCTCCTTTCCTCT (double strand) [FAM-labelled short dsDNA],binding result,binds more weakly
